US20200283832
A negative result means that nothing was seen under these conditions. Where a protein sequence is shown, tags need not be part of it. Construct, isoform or probe ends are uncertain for at least one entry.

Key:
DpnI = target: T1, DpnI (UniProt P0A460); experiment: enzyme reaction in vitro; details: PS linkage between last two nt of oligo 2, 5' phosphate on oligo 3, BHQ-2 dT quencher, Mg acetate, 37 C, purified recombinant protein, protein details: New England Biolabs
T1 sequence (looked up, limits assumed): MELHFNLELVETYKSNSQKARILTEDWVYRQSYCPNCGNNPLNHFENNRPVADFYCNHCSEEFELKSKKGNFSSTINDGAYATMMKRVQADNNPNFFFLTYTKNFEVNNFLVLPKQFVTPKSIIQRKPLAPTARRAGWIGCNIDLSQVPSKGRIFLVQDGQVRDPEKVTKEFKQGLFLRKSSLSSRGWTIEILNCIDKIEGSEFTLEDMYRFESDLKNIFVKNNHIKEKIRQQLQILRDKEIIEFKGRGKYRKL

DpnII = target: T2, DpnII (UniProt P09357); experiment: enzyme reaction in vitro; details: PS linkage between last two nt of oligo 2, 5' phosphate on oligo 3, BHQ-2 dT quencher, Mg acetate, 37 C, purified recombinant protein, protein details: New England Biolabs
T2 sequence (looked up, limits assumed): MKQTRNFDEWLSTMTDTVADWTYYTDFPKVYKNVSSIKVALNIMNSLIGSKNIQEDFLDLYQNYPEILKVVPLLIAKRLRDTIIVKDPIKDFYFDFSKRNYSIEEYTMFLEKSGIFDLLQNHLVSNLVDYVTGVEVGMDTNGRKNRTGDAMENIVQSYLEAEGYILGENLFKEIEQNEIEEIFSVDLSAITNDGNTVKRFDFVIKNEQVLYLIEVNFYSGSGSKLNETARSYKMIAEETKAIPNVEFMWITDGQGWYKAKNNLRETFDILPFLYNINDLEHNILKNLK

Sequence | activity on this sequence (DpnI; N6-methyl-dA in GATC and in the following ATCAGA of oligo 1b, 3' inverted dT on oligos 1b and 3, DpnI unable to cleave hemimethylated duplex, label: Atto 594 on dT) | activity on this sequence (DpnI; N6-methyl-dA in oligo 1b, captured dA is N6-methyl-dA, 3' inverted dT on oligos 1b and 3, iterative cleavage, Atto594 signal, label: Atto 594 on dT) | activity on this sequence (DpnII; N6-methyl-dA in oligo 1b, captured dA is N6-methyl-dA, 3' inverted dT on oligos 1b and 3, DpnII unable to cleave, label: Atto 594 on dT) | activity on this sequence (DpnI; 3' inverted dT on oligos 1a and 3, DpnI unable to cleave, label: Atto 700 on dT) | activity on this sequence (DpnII; 3' inverted dT on oligos 1a and 3, iterative cleavage, Atto700 signal, K acetate, label: Atto 700 on dT) | activity on this sequence (DpnII; captured dA is N6-methyl-dA, 3' inverted dT on oligos 1a and 3, DpnII unable to cleave, label: Atto 700 on dT)
TTTCGAGTGAGGTCATGGTCGACAGGTGGGTTTAGATGATGATCAGATGTTGCCCTTAGC / TAAGGGCAACATCTGATCATCATCTAAACCCACCTGTCGAGT | not active | active | not active |  |  | 
TTTCGGGTGAGGTCATGGTCGACAGGTGGGTTTAGATGATGATCAGATGTTGCCCTTAGC / TAAGGGCAACATCTGATCATCATCTAAACCCACCTGTCGAGT |  |  |  | not active | active | not active
